Literature values, collected in patent US20090098201A1, “Composition and Method for Treatment and Prevention of Atherosclerosis” (Bio Intellectual Property Services (Bio IPS) LLC, priority 2004, published 2009).
Some entries share one result that the patent states for a list of compounds.

Conditions: short half-life, the result of hepatic metabolism to inactive metabolites

CC(C)n1c(/C=C/C(O)CC(O)CC(=O)O)c(-c2ccc(F)cc2)c2ccccc21 (stereo not shown) [fluvastatin]
half-life: 3 to 4 h
